From article doi:10.1101/2021.02.10.430627
These are yes or no findings as the source states them, for the method shown. In cells and extracts the contact can be indirect. Some results given as binding are weak or reduced against the parent protein; the word gives no strength.

Protein sequences, listed by entry. Tags and fused reporters are not part of them.
UniProt Q00420: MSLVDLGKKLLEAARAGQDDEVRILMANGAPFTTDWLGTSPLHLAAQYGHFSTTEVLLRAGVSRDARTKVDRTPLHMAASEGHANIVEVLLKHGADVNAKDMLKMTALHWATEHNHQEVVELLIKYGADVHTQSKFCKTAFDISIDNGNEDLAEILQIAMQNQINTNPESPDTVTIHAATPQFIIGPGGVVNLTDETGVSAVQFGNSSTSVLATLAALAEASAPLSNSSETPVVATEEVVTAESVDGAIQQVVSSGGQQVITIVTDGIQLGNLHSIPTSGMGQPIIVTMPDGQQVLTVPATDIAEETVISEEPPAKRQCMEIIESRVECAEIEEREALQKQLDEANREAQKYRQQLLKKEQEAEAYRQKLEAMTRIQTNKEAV

Biological target: GABPB1 (mouse (endogenous in E13.5 embryonic right ventricles)) (UniProt Q00420)
Assay: co-IP

B1: GABPA (protein, UniProt Q00422 1-454)
chain: MTKREAEELIEIEIDGTEKAECTEESIVEQTYTPAECVSQAIDINEPIGNLKKLLEPRLQCSLDAHEICLQDIQLDPDRSLFDQGVKTDGTVQLSVQVISYQGMEPKLNILEIVKTAETVEVVIDPDAHHAEAEAHLVEEAQVITLDGTKHITTISDETSEQVTRWAAALEGYRKEQERLGIPYDPIHWSTDQVLHWVVWVMKEFSMTDIDLTTLNISGRELCSLNQEDFFQRVPRGEILWSHLELLRKYVLASQEQQMNEIVTIDQPVQIIPASVPPATPTTIKVINSSAKAAKVQRSPRISGEDRSSPGNRTGNNGQIQLWQFLLELLTDKDARDCISWVGDEGEFKLNQPELVAQKWGQRKNKPTMNYEKLSRALRYYYDGDMICKVQGKRFVYKFVCDLKTLIGYSAAELNRLVIECEQKKLARMQLHGIAQPVTAVALAATSLQADKEI
binding: binds
